Values from PubChem BioAssay AID504805 (Drosophila RNAi Screening Center, 2011)
The reagents shown are a selection, not the whole library. 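Phenotypes are words from visual inspection of images, not measured scores.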 A plus sign joins genes that one reagent is predicted to hit.

Purpose: 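Genome-wide fly cell screen for factors exporting mRNA from the nucleus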 (primary screen)
System: Drosophila S2R+ cells
Knock-down reagent: long dsRNA against Drosophila genes, 0.25 µg dsRNA per well
Duration: 4 days
Read-out: 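Microscope images of cells stained for poly(A) RNA with a fluorescent oligo-dT probe and for DNA, assessed visually, with a phenotype description given for each replicate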

Hr3 [DRSC06118]
- phenotype, replicate 1: poly(A) RNA held back in the nucleus
- phenotype, replicate 2: poly(A) RNA held back in the nucleus

cas [DRSC12373]
- phenotype, replicate 1: poly(A) RNA held back in the nucleus

cpo + CG42457 (retired record) [DRSC15327]
- phenotype, replicate 1: poly(A) RNA held back in the nucleus

eIF2gamma [DRSC13081]
- phenotype, replicate 1: poly(A) RNA held back in the nucleus

eas [DRSC20329]
- phenotype, replicate 1: poly(A) RNA held back in the nucleus

CG31688 + CG31687 [DRSC02116]
- phenotype, replicate 1: poly(A) RNA held back in the nucleus

CG1138 [DRSC12530]
- phenotype, replicate 1: poly(A) RNA held back in the nucleus

CG44085 [DRSC02922]
- phenotype, replicate 1: poly(A) RNA held back in the nucleus
- phenotype, replicate 2: poly(A) RNA held back in the nucleus

RpS8 [DRSC16318]
- phenotype, replicate 1: poly(A) RNA held back in the nucleus

Fhos [DRSC10546]
- phenotype, replicate 1: poly(A) RNA held back in the nucleus

CG12213 [DRSC14478]
- phenotype, replicate 1: poly(A) RNA held back in the nucleus

Nf1 [DRSC16758]
- phenotype, replicate 1: poly(A) RNA held back in the nucleus

Paf-AHalpha [DRSC20267]
- phenotype, replicate 1: poly(A) RNA held back in the nucleus

Usp2 [DRSC20633]
- phenotype, replicate 1: poly(A) RNA held back in the nucleus

CG12860 [DRSC06200]
- phenotype, replicate 1: poly(A) RNA held back in the nucleus

5 neighbouring records already listed:
Hr3 [DRSC06118]
- phenotype, replicate 1: poly(A) RNA held back in the nucleus
- phenotype, replicate 2: poly(A) RNA held back in the nucleus

cas [DRSC12373]
- phenotype, replicate 1: poly(A) RNA held back in the nucleus

cpo + CG42457 (retired record) [DRSC15327]
- phenotype, replicate 1: poly(A) RNA held back in the nucleus

eIF2gamma [DRSC13081]
- phenotype, replicate 1: poly(A) RNA held back in the nucleus

eas [DRSC20329]
- phenotype, replicate 1: poly(A) RNA held back in the nucleus

Continued:
Traf-like [DRSC19894]
- phenotype, replicate 1: poly(A) RNA held back in the nucleus

Prim2 [DRSC11610]
- phenotype, replicate 1: poly(A) RNA held back in the nucleus

z [DRSC18855]
- phenotype, replicate 1: poly(A) RNA held back in the nucleus
- phenotype, replicate 2: poly(A) RNA held back in the nucleus

Nup98-96 [DRSC14210]
- phenotype, replicate 1: poly(A) RNA held back in the nucleus
- phenotype, replicate 2: poly(A) RNA held back in the nucleus

CG3184 [DRSC18289]
- phenotype, replicate 1: poly(A) RNA held back in the nucleus

dan [DRSC14406]
- phenotype, replicate 1: poly(A) RNA held back in the nucleus

Pink1 [DRSC18361]
- phenotype, replicate 1: poly(A) RNA held back in the nucleus

bru1 [DRSC01236]
- phenotype, replicate 1: poly(A) RNA held back in the nucleus

CG5618 [DRSC11780]
- phenotype, replicate 1: poly(A) RNA held back in the nucleus

Cdk9 [DRSC04601]
- phenotype, replicate 1: poly(A) RNA held back in the nucleus

RpL27 [DRSC15638]
- phenotype, replicate 1: poly(A) RNA held back in the nucleus

dup [DRSC07088]
- phenotype, replicate 2: cells look to be dying

IP3K2 [DRSC19747]
- phenotype, replicate 1: poly(A) RNA held back in the nucleus

CG3726 [DRSC18320]
- phenotype, replicate 1: poly(A) RNA held back in the nucleus

beag [DRSC15296]
- phenotype, replicate 1: poly(A) RNA held back in the nucleus

RpS14a [DRSC18710]
- phenotype, replicate 1: poly(A) RNA held back in the nucleus

E(bx) [DRSC08509]
- phenotype, replicate 1: poly(A) RNA held back in the nucleus

CG12096 [DRSC21692]
- phenotype, replicate 1: poly(A) RNA held back in the nucleus

Ten-m [DRSC11882]
- phenotype, replicate 1: poly(A) RNA held back in the nucleus

stan [DRSC05234]
- phenotype, replicate 1: poly(A) RNA held back in the nucleus
- phenotype, replicate 2: poly(A) RNA held back in the nucleus

CG42493 [DRSC05309]
- phenotype, replicate 1: poly(A) RNA held back in the nucleus

Paris [DRSC00451]
- phenotype, replicate 1: poly(A) RNA held back in the nucleus

alpha4GT2 [DRSC15905]
- phenotype, replicate 1: poly(A) RNA held back in the nucleus

CG34002 [DRSC11953]
- phenotype, replicate 1: poly(A) RNA held back in the nucleus

glob3 [DRSC12261]
- phenotype, replicate 1: poly(A) RNA held back in the nucleus

cg [DRSC07650]
- phenotype, replicate 1: poly(A) RNA held back in the nucleus
- phenotype, replicate 2: poly(A) RNA held back in the nucleus

CG5674 [DRSC02874]
- phenotype, replicate 1: poly(A) RNA held back in the nucleus

TM9SF3 [DRSC09747]
- phenotype, replicate 1: poly(A) RNA held back in the nucleus

Pitslre [DRSC23346]
- phenotype, replicate 1: poly(A) RNA held back in the nucleus
- phenotype, replicate 2: poly(A) RNA held back in the nucleus

Syngr [DRSC06003]
- phenotype, replicate 1: poly(A) RNA held back in the nucleus

nxf2 [DRSC10403]
- phenotype, replicate 1: poly(A) RNA held back in the nucleus
